Source: patent US20080227813A1, “Pharmaceutical compositions and methods for treating diseases associated with neurodegeneration” (priority 2006, published 2008)
At least one compound was matched to its structure with a doubt left.

Test system: CRL:NMRI BR mice
Experiment: Acute intraperitoneal toxicity in mice
Format: in vivo
Conditions: mouse, male, by citrate
Experimental: Acute intraperitoneal toxicity studies were performed in rats (CRL(WI:)BR) and in mice (CRL: NMRI BR).
In the case of the mouse study a control and five dose groups were involved at dose levels of 850 mg/kg, 1100 mg/kg, 1500 mg/kg, 1900 mg/kg and 2600 mg/kg (equal to 527 mg/kg, 682 mg/kg, 930 mg/kg, 1178 mg/kg and 1613 mg/kg free base, n=5 animals/sex/group).

[O-][n+]1cccc(/C(Cl)=N/OC[C@H](O)CN2CCCCC2)c1 [Compound I, N-[2-hydroxy-3-(1-piperidinyl)-propoxy]-pyridine-1-oxide-3-carboximidoyl chloride]
Intraperitoneal LD50 value: 1352 (1087-1650 by citrate mg/kg
